# Values from PubChem BioAssay AID504764 (Drosophila RNAi Screening Center, 2011)
# Screen: 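Knock-downs that raise or lower a Notch target reporter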 (primary screen)
# Cells: Drosophila Kc167 cells
# Knock-down reagent: long dsRNA against Drosophila genes
# Timing: about 5 days (4 days dsRNA, then 24 h after transfection)
# Treatment: transfection of constitutively active membrane-tethered Notch lacking the extracellular domain, read 24 h later
# Measurement: 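Light from a Notch-responsive E(spl)m3 luciferase reporter under active Notch, with control-promoter and no-Notch reporter wells to normalise; raw counts from paired wells a and b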
# Reading the numbers: induced reporter light, run 1, well a and induced reporter light, run 1, well b: higher = more light from the Notch target reporter with active Notch; control promoter light, run 1, well a and control promoter light, run 1, well b: higher = more light from the viral control promoter (cell number, transfection, viability); uninduced reporter light, run 1, well a: higher = more light from the Notch target reporter without active Notch
# Active means: 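Wells with low control signal or poorly matching duplicates excluded; duplicates averaged; per source plate, z beyond ±2 for induced/control log2 ratio or beyond ±1.8 for induced/uninduced marks a hit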
# Meaning of the calls: active = modifier hit (raised or lowered Notch signal); inactive = not a hit
# In all, the deposit lists about 22,000 reagents; this is an unselected part of those that have a named target and a result. Over the whole deposit, 403 (1.9%) got an active call. 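Unnormalised raw counts per well; ratio z-scores behind the hit calls and whether each hit raises or lowers signal are not deposited.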 Entries without a mark were called inactive. The record does not give: the amount of reagent.
Target gene,dsRNA,"induced reporter light, run 1, well a","induced reporter light, run 1, well b","control promoter light, run 1, well a","control promoter light, run 1, well b","uninduced reporter light, run 1, well a"
CG14434,DRSC17927,48170,42335,77735,67435,3440
Whamy (WHAMM and JMY related),DRSC14574,99590,90170,95020,79205,7030
Ras85D (Ras oncogene at 85D),DRSC16814,92535,90545,94230,63430,4510
fat-spondin,DRSC07617,91155,93700,1.61e5,2.05e5,8260
CG5787,DRSC02895,1.74e5,1.65e5,1.66e5,1.49e5,16805
CG15096,DRSC06525,1.30e5,1.12e5,1.98e5,2.67e5,9280
kuz (kuzbanian),DRSC03555,1.17e5,1.11e5,1.22e5,1.54e5,8965
Gr10b (Gustatory receptor 10b),DRSC19477,1.28e5,1.11e5,1.38e5,1.59e5,8095
Rrp42,DRSC07161,73310,99445,1.37e5,1.19e5,8430
pasi2 (pasiflora 2),DRSC16380,1.39e5,1.32e5,1.10e5,73260,5505
"Nadk2 (NAD kinase 2, mitochondrial)",DRSC07072,1.82e5,1.44e5,1.58e5,1.43e5,12835
CG8100,DRSC10961,2.47e5,2.19e5,4.30e5,4.00e5,7950
kl-2 (male fertility factor kl2),DRSC21136,1.09e5,74035,93395,1.03e5,8670
Spps (Sp1-like factor for pairing sensitive-silencing),DRSC15856,28250,22925,26975,23280,4655
CG15128,DRSC06550,48870,41105,40535,53090,4365
Polr1B (RNA polymerase I subunit B),DRSC00780,1.03e5,1.02e5,1.34e5,1.29e5,6585
CG9360,DRSC20180,1.05e5,1.06e5,1.38e5,1.32e5,7850
CG34199,DRSC05867,76410,83655,1.10e5,99905,6780
Tsp5D (Tetraspanin 5D),DRSC18380,1.31e5,1.39e5,2.00e5,2.90e5,9670
CG17777,DRSC18137,77015,1.01e5,1.49e5,1.50e5,6570
